The experiment deals with p53 (wild-type, endogenous in U87 glioblastoma cells) (human (endogenous in U87)), P04637. As to the kind of experiment: co-IP; endogenous proteins; lysates of U87, LN215 and SNB19 cells incubated with anti-p53 monoclonal antibody (sc-126) at 4 °C overnight, protein A/G agarose 3 h, immunoblot. The following applies: remark: other sources report otherwise.

Results are given in words; binding and its absence hold for the method and conditions named. In cells and extracts the contact can be indirect.

B1: KDM4D (endogenous in glioblastoma cells), Q6B0I6 1-523 (protein)
chain: METMKSKANCAQNPNCNIMIFHPTKEEFNDFDKYIAYMESQGAHRAGLAKIIPPKEWKARETYDNISEILIATPLQQVASGRAGVFTQYHKKKKAMTVGEYRHLANSKKYQTPPHQNFEDLERKYWKNRIYNSPIYGADISGSLFDENTKQWNLGHLGTIQDLLEKECGVVIEGVNTPYLYFGMWKTTFAWHTEDMDLYSINYLHLGEPKTWYVVPPEHGQRLERLARELFPGSSRGCGAFLRHKVALISPTVLKENGIPFNRITQEAGEFMVTFPYGYHAGFNHGFNCAEAINFATPRWIDYGKMASQCSCGEARVTFSMDAFVRILQPERYDLWKRGQDRAVVDHMEPRVPASQELSTQKEVQLPRRAALGLRQLPSHWARHSPWPMAARSGTRCHTLVCSSLPRRSAVSGTATQPRAAAVHSSKKPSSTPSSTPGPSAQIIHPSNGRRGRGRPPQKLRAQELTLQTPAKRPLLAGTTCTASGPEPEPLPEDGALMDKPVPLSPGLQHPVKASGCSWAPVP
As to B1, the binding result is given as “no binding”.

The values are drawn from article PMC7814060.
